Reference: publication PMC4811495
Results are given in words; binding and its absence hold for the method and conditions named. In cells and extracts the contact can be indirect. Some binding calls cover weakened binding; strength is not graded here.

Sequences of proteins named here, by UniProt entry; tags and fusion partners are left off.
UniProt P10275: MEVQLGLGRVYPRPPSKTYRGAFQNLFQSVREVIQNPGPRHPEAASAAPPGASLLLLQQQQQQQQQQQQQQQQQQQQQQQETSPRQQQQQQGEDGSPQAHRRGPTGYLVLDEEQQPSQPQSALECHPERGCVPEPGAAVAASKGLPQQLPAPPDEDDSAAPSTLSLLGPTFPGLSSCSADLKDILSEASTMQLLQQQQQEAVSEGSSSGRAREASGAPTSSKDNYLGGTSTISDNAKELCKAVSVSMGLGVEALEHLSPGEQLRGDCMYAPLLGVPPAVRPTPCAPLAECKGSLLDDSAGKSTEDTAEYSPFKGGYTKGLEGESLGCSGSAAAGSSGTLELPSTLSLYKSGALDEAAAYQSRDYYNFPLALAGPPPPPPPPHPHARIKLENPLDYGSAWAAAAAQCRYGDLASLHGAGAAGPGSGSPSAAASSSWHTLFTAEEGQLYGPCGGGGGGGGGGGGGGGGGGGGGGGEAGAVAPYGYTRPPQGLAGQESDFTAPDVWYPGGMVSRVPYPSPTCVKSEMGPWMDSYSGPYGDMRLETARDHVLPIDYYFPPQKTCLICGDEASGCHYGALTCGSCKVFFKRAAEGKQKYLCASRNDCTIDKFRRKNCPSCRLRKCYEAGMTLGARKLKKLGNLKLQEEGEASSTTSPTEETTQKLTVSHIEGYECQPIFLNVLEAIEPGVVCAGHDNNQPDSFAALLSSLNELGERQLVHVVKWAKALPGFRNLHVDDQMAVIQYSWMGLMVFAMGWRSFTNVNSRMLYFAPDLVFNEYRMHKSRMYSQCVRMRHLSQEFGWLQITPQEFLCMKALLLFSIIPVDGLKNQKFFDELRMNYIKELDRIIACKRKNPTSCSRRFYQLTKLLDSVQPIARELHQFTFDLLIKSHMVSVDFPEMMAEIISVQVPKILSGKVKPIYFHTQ
UniProt P62136: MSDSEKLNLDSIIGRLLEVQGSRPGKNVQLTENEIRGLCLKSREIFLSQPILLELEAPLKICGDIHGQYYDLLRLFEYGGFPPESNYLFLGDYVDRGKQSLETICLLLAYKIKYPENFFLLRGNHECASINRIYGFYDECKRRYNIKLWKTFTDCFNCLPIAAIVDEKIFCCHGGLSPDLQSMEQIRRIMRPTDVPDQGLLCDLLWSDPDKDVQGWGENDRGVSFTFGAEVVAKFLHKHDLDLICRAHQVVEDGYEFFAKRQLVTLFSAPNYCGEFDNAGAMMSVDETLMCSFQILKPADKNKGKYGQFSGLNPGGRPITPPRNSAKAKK
UniProt Q00987: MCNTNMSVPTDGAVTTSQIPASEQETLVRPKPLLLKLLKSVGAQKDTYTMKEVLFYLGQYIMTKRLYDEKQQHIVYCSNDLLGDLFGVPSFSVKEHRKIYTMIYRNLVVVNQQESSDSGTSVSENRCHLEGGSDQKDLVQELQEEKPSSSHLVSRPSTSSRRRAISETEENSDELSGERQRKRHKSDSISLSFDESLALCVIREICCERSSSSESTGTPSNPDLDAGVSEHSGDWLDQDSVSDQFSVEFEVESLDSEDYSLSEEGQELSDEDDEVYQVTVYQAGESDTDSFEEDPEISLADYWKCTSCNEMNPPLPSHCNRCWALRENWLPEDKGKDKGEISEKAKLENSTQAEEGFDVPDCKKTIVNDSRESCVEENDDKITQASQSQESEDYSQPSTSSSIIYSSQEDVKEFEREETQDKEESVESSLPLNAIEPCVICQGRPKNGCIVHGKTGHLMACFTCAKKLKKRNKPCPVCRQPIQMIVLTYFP

Legend:
[1] = target: Flag-tagged AR wild-type (human) (UniProt P10275); assay: co-IP; 293T and Cos1 cells co-transfected with PP1α and Flag-tagged AR; triton lysis buffer; anti-Flag-M2 beads, 4°C, 2 hr; blotting
[2] = target: Flag-tagged PP1α (in HeLa) (UniProt P62136); assay: co-IP; HeLa cells transfected with Flag-PP1 and HA-MDM2 or HA-SKP2, without or with AR; overnight in androgen-depleted medium; anti-Flag beads; blotting
[3] = target: Flag-tagged PP1α (in 293T) (UniProt P62136); assay: co-IP; 293T cells co-transfected with Flag-PP1α and HA-tagged AR constructs, in medium with 5% FBS or overnight in androgen-depleted medium; triton lysis buffer; anti-Flag-M2 beads, 4°C, 2 hr; blotting
[4] = target: endogenous PP1α (HeLa) (human (endogenous in HeLa)) (UniProt P62136); assay: pull-down; microcystin-agarose beads precipitate endogenous PP1α from HeLa cells transfected with AR, overnight in androgen-depleted medium with 10 nM DHT; blotting

protein phosphatase 1 catalytic subunit (PP1α), untagged (from UniProt P62136 1-330) (enzyme)
binding [1]: binds

HA-MDM2 (from UniProt Q00987 1-491)
binding [2]: binds

HA-HA-AR full-length (aa 1-919) (from UniProt P10275 1-920)
binding [3]: binds

AR wild-type (transfected in HeLa) (from UniProt P10275 1-920)
binding [4]: binds
